# Screen size: about 52,000 sequences; about 210 (0.4%) were called active.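 How the source made its calls: active means gene whose silencing raises cell survival under the drug, median off-target-corrected z-score across its silencing RNAs 2 or more; inactive means the rest.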 The list shows a part of the results.
# Experiment: Resistance to Poly (ADP-Ribose) Polymerase inhibitor: Gene Identification via Genome-wide siRNA Screen
# Conditions: mouse BRCA2 R2336H ES cells, olaparib, CellTiter-Glo viability; hits give high values
# How it was run: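 Mouse BRCA2 R2336H ES cells were reverse-transfected with siRNA (20 nM final), treated at 48 h with 500 nM olaparib, and read by CellTiter-Glo after 72 h. Scores: MAD-based z per siRNA, median per gene, seed off-target correction.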
row,Sequence,z-score
1,GGCAGAGUGCUGGAUUUGUTT against 4933409G03Rik,inactive: -0.148
2,GCCUCAAAUAUCGGGCCAUTT against Rapsn,inactive: 0.219
3,CCAUGUAAGUUAUAAGUGUTT against Nxph1,inactive: -0.638
4,GGGAAUCGGACCAACUUACTT against Adssl1,inactive: -0.784
5,GGACUUCCCGAACUACAUATT against Zfp52,inactive: -1.16
6,GCAUAUUAGUGCUUUUCCCTT against Olfr78,inactive: 1.12
7,GGAAGAUUUCUUCACCGACTT against Ptf1a,inactive: 1.21
8,GGCUCUGGCAUUAAUGAACTT against Vnn1,inactive: 0.936
9,GGCAGAUCUGAUCAACGGATT against 1500011K16Rik,inactive: 0.333
10,GGACCAUCUCUUUGAUUGGTT against Olfr424,inactive: 0.201
11,GGCAGAUUACUCUGAAUGATT against Prdx4,inactive: 0.89
12,CGGAAUUUUAGGGAUAGGATT against Rcn1,inactive: 0.867
13,GGCACAUUGUGGUGUCUUGTT against Pycr1,inactive: -1.35
14,GCCGUGAAGAAAAUUUUGATT against Olfr270,inactive: -0.0821
15,GGACGCAAUGGUGUCUUCUTT against Adamts16,inactive: -1.53
16,GGAGACCUAGAUGCACUGATT against Arhgdig,inactive: 1.34
17,GCUUCACAAGCAGUGUACUTT against Slc37a1,active: 1.96
18,GAUUUCAAGAUCCAGACUCTT against 2310007A19Rik,inactive: 0.42
19,GGUGCAUAAUUUAAAGAUCTT against Za20d1,inactive: 0.37
20,CCCAUGACUUUAGAAUAGGTT against Kcnf1,inactive: -0.49
21,GCCUUACACCUGAAAUCGUTT against 3110003A22Rik,inactive: 0.856
22,GCUGCUAAUGCUUGAUUAUTT against Il7r,inactive: -0.876
23,GGAAAUUACAAGCUAGCAUTT against Dnajc7,inactive: 0.0955
24,CCCUUUACCCUACGCGUAUTT against Ifitm2,inactive: -0.313
25,GCUUGGAAGACUGUAAACUTT against 4921521K07Rik,inactive: 0.958
26,GCUCGUUUUCUAUUGAAGUTT against Bre,inactive: 0.289

row,Sequence,z-score
1,GGGUAUUUUUUUGUGGCUUTT against Nsg2,inactive: 0.729
2,GGAGGCUGUGAAAGAAUCATT against Gzma,inactive: 2.24
3,GCUAUGUCAUGGUUGGAACTT against Bat3,inactive: 1.86
4,GGCCGGAAGGAUAUUACCUTT against Epha3,inactive: -0.573
5,GCAGAUACGUAGAAGGAUCTT against Olfr555,inactive: 0.988
6,GGCCUCAAAUACCAUAACATT against BC066028,inactive: 0.584
7,GGGACAAAUAAGAAAACCCTT against 1110021H02Rik,inactive: 1.04
8,GCAUUACACUGUUAAUGUUTT against Gopc,inactive: -0.174
9,GCGUGUUACCAUAAAACUUTT against 1700021K19Rik,inactive: 0.505
10,GGUAAACUUGACAAUAGGATT against 2700069A02Rik,inactive: 0.776
11,CCUAAAACUCACCAUAGAGTT against Nfatc3,inactive: -0.0858
12,GGUGAAGCCACAAUGUUCCTT against Helt,inactive: -0.626
13,GGUUAUUACCCACUCAAAATT against Mkks,inactive: 0.749
14,GGAACUGGAAAACUUCAAATT against Mrvi1,inactive: -0.592
15,GCAAGCAAACUGGAGUUGATT against Rnf137,inactive: 0.651
16,GGAUCUGACACACAUGAUCTT against Thrap5,inactive: 1.46
17,GGACAUCAACGACAGUGAATT against Cdh22,inactive: -0.762
18,GCCACAAUGGGCAGUCUUATT against Crim2,inactive: -2.07
19,GGCAACUUUGUUAUAUACATT against Sh2bp1,inactive: -0.76
20,GCGACUUCGCUAUAUCAAGTT against Samhd1,inactive: -2.63
21,CCAUUAAAAACCCAGAGGATT against Xlkd1,inactive: 0.569
22,GGAGUUGAGCAAGACCAAGTT against BC027663,inactive: 0.707
23,GCAGAGGGACAGUCUACAUTT against Rorc,inactive: -0.184
24,GGCAUUGAAUUUGACUGGATT against 5033425B17Rik,inactive: -1.01
25,GGGUGCAUGCCUUAAACAATT against Utrn,inactive: 0.837
26,GGAUUUACGACCUAACCAUTT against 0710008K08Rik,inactive: 0.336

# Retrieved one by one from the list above, 4 records:
row,Sequence,z-score
18,GCCACAAUGGGCAGUCUUATT against Crim2,inactive: -2.07
4,GGCCGGAAGGAUAUUACCUTT against Epha3,inactive: -0.573
25,GGGUGCAUGCCUUAAACAATT against Utrn,inactive: 0.837
9,GCGUGUUACCAUAAAACUUTT against 1700021K19Rik,inactive: 0.505

# (list continues)

row,Sequence,z-score
1,GGGUUCAGAAUAGAAAGAUTT against 2010002A20Rik,inactive: -1.2
2,GCGUAUAUGUUAUGCUUCATT against Zpbp,inactive: -0.336
3,GGCAUCACAGUGUACGAUUTT against Glis3,inactive: -0.222
4,GGACAUAGCACGUCUUUUGTT against 2610529H08Rik,inactive: 0.608
5,GGAAGAUCUCUUGUCUGCUTT against Mtcp1,inactive: 0.815
6,GGUCUGAAGAAGAUUCUGGTT against AW538196,inactive: 0.434
7,GCCUGUUAGCUAUAUUAAGTT against Ahr,inactive: 1.11
8,GGACUAGCCCUCUUUUAUUTT against 5830411N06Rik,inactive: -0.0761
9,CCAUGUGUCAAACUACCGGTT against Rbmx2,inactive: 1.66
10,CGAACUUGUACAGAAGAAUTT against Slfn3,inactive: 0.147
11,CGUUUCUGUGGACAGAAUUTT against Tmem55b,inactive: -0.174
12,GCCUAUGAGGAACUACCUATT against Pga5,inactive: 0.113
13,GGCUUGGCUAUGAAAAGUATT against Rusc2,inactive: -2.31
14,UCAGCUUGCUCAUCAUUAATT against Wfdc13l1,inactive: -0.524
15,CCAGCUCUCGAUUCCAUCATT against Fem1a,inactive: -1.24
16,CGAGUUGCAGGAUUUCAAGTT against Slit3,inactive: 0.0837
17,GGAAUUUGUGAAAAGAAGUTT against Aldh1a2,inactive: 0.884
18,GCUUACAUGAACAUAUAGUTT against Tiparp,inactive: 0.445
19,GCUCCGGAAAUUGGCAUCATT against Ppp1r10,inactive: -0.471
20,GGGUUUCUAUGAAGAGAUCTT against Fhod1,inactive: 0.594
21,GGCUCGUUUGUACGACUUCTT against Pigm,inactive: -0.698
22,CGUGGUUAAGGACUUGUUUTT against Nek7,inactive: 0.283
23,UGGAGCUAGCAAUACAGCGTT against MGC91195,inactive: -0.79
24,CCAAAUCCCAGAGUUAUUUTT against Htr2c,inactive: 0.535
25,CGUCCAUAGAACAAUUGCATT against Rnase12,inactive: 0.323
26,GCUCGAUAUCACAGAGAUUTT against Gm503,inactive: -0.481

# A section from further up, for reference:
row,Sequence,z-score
21,GGCUCGUUUGUACGACUUCTT against Pigm,inactive: -0.698
22,CGUGGUUAAGGACUUGUUUTT against Nek7,inactive: 0.283
23,UGGAGCUAGCAAUACAGCGTT against MGC91195,inactive: -0.79

# Later entries.

row,Sequence,z-score
1,AUGGAAUCCAGUAUAGAGCTT against BC088983,inactive: -1.31
2,GCUAAAGCAGCUCGUCUGGTT against Psmd11,inactive: -2.94
3,GUACAAGCUGUGCAAGGUGTT against 1110033J19Rik,inactive: -1.39
4,CGAUCGUGUGGGUUAUAUCTT against Htr1f,inactive: -0.000591
5,GCACUAGAAGUGUCUUUUCTT against Pcdh21,inactive: 0.751
6,GCGACACCACUGAUGACGATT against Gga2,inactive: -0.54
7,GGGCAUGGGAUUUAAUUCUTT against Dnajc11,inactive: -0.585
8,GGAAGAAAUUCCUAAUGAATT against Igsf11,inactive: 0.0408
9,CCUGCAUACGAAGUACAUATT against Bsg,inactive: 0.3
10,GGUGUACAGUAUUUUAGUUTT against 1700024K14Rik,inactive: 0.892
11,CCUGAACUGAAAUUCCAUGTT against Ftmt,inactive: 0.125
12,GGAGCUGAGUGAAACUCUUTT against Kcnv1,inactive: -0.919
13,GCAAGGCGGAGAGUAAAAGTT against MGC48079,inactive: -1.13
14,GGACUUUGCCCUGGAUUCUTT against 6030411K04Rik,inactive: -2.81
15,GCACAGAUGCAAGAUAAUCTT against 1700129L13Rik,inactive: 1.22
16,GGUGGUUGUUAUUGAAAAGTT against Mical3,inactive: 0.292
17,GGCUUGUGUUUCUAUCUUUTT against Cct8,inactive: -3.16
18,GGUGCCUUUCUGCUUUUGATT against 9230117E20Rik,inactive: -1.32
19,CCUUAUUUAGCUAAGCAGATT against Ran,inactive: -3.05
20,CCAAUAACUACUCAUACCCTT against 1110015K06Rik,inactive: 0.802
21,GGGUUUUUAUACUAGUUUGTT against Exosc4,inactive: -1.42
22,GGAUCCUUAAUCGAUACACTT against Gng3,inactive: 0.459
23,GGCACACACUGAUUUUUUUTT against Cops2,inactive: -2.58
24,CCAAAUUCAUUCUAGCUCGTT against Copeb,inactive: 0.474
25,GGUCUCUUUUUGUUGUAGUTT against AI429152,inactive: 0.936
26,CCCUCACUUAUAGAAGAUUTT against Nat2,inactive: -0.65

# — PubChem BioAssay AID1347423 (Functional Genomics Laboratory (NCATS/FGL), 2020)
